Results are given in words; binding and its absence hold for the method and conditions named. A result given as binding can be weak or reduced; the word gives no strength. For part of these data: Binding seen in cells or lysates may run through a third protein. For part of these data: Tags and fused reporters may be left off the sequences shown.
Tests used:
[1] = target: T1, GST fusion protein containing amino acids 1-179 (full length) of NF-E4 (UniProt Q86UQ8); experiment: GST pull-down: 35S-labeled PRMT-5 on GST-NF-E4 bound to glutathione beads, autoradiography
T1 sequence (looked up): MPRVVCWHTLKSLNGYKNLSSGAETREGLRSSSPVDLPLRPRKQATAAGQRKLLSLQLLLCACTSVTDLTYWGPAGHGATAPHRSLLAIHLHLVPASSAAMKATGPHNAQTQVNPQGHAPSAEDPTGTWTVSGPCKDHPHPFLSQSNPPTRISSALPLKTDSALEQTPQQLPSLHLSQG

[2] = target: T2, NF-E4 (endogenous, K562 cells) (human) (UniProt Q86UQ8); experiment: co-immunoprecipitation of endogenous proteins from K562 cell extract with PRMT-5 antibody, western blot
T2 sequence (looked up): T1 sequence (looked up)

[3] = target: T2, NF-E4 (endogenous, K562 cells) (human); experiment: PRMT-5 immunoprecipitates from untransfected K562 cell extract, western blot with NF-E4 or PRMT-5 antibodies

Measured: binding

protein methyltransferase PRMT-5 (human, untagged) (enzyme)
binds: all assays above

Source: US20100061989A1
